# Paper PMC5996148
# Several values for one entry are separate records, joined by “and”; a condition that tells them apart may be missing. Equal entries are not always repeated. This is one part of the list.
# Legend:
# Assay in all cases: protein microarray (ProtoArray v5.0), streptavidin-Alexa Fluor 647
# Conditions in all cases: 3'-biotin; 20 mM Tris (pH 7.5), 5 mM MgCl2, 100 mM KCl, 0.1% Tween-20, A/T-rich and random oligonucleotide blockers; temperature not stated; high values mean tight binding
# Importin-4 (human) = system: Importin-4 (human)
# [1] = system: Inhibitor of growth protein 4 (human)
# [2] = system: Inorganic pyrophosphatase 2, mitochondrial (human)
# [3] = system: Insulin-degrading enzyme (human)
# Integrin beta-7 (human) = system: Integrin beta-7 (human)
# [4] = system: Interferon alpha-1/13 (human)
# [5] = system: Interferon alpha-14 (human)
# [6] = system: Interferon alpha-4 (human)
# [7] = system: Interferon-induced guanylate-binding protein 2 (human)
# [8] = system: Interleukin-1 family member 10 (human)
sequence,measurement,setting,value
GGGAGGCTGAGGCAGG [G4-1 biotinylated (PQS2)],binding signal,Importin-4 (human),-0.335 z-score
same,binding signal,[1],-0.36 z-score
same,binding signal,[2],-0.309 z-score
same,binding signal,[3],-0.296 z-score
same,binding signal,Integrin beta-7 (human),-0.326 z-score
same,binding signal,[4],-0.344 z-score
same,binding signal,[5],-0.308 z-score
same,binding signal,[6],-0.337 z-score and -0.357 z-score
same,binding signal,[7],-0.359 z-score
same,binding signal,[8],-0.305 z-score
